Data as given in PubChem BioAssay AID493246 (Drosophila RNAi Screening Center, 2011)
Assay: 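Genome-wide search for dsRNAs that reduce cell number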 (primary screen). Cell system: Drosophila Kc and S2R+ cells. Reagents: long dsRNA against Drosophila genes. Measured: 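Cell number per well after knock-down, printed as raw plate values; calls were based on per-plate z-scores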. Direction: Kc cell number and S2R+ cell number: higher = more cells remaining. Rule for the call: 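Counted as a hit if cell number falls by a z-score of at least 3 within its plate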.
In all, the deposit lists about 21,000 reagents; shown is an unselected part of those with a known target gene and a result. Of all reagents, 429 (2%) were called active. 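Values are raw and not normalised between plates; calls rest on per-plate z-scores that were not deposited.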 Unmarked entries are inactive. Names joined by + are all predicted targets of the reagent. Not given: the amount of reagent, the time to read-out.

| gene | DRSC id | Kc cell number, rep 1 | Kc cell number, rep 2 | S2R+ cell number, rep 1 | S2R+ cell number, rep 2 |
| --- | --- | --- | --- | --- | --- |
| CG30015 (GeneID 36147) | DRSC05241 | 1.45e6 | 1.44e6 | 1.03e6 | 1.11e6 |
| CG30015 (GeneID 36147) | DRSC07027 | 1.39e6 | 1.39e6 | 1.17e6 | 1.23e6 |
| CG30015 (GeneID 36147) | DRSC07028 | 1.68e6 | 1.64e6 | 1.42e6 | 1.55e6 |
| CG12164 (GeneID 35651) | DRSC06115 | 1.49e6 | 1.58e6 | 1.24e6 | 1.32e6 |
| vig (GeneID 34885) | DRSC03630 | 1.35e6 | 1.45e6 | 9.81e5 | 1.17e6 |
| vig (GeneID 34885) | DRSC03631 | 1.26e6 | 1.34e6 | 1.21e6 | 1.22e6 |
| CG42662 + CG30080 | DRSC05571 | 1.81e6 | 1.82e6 | 1.17e6 | 1.32e6 |
| AhcyL1 (GeneID 38342) | DRSC08647 | 1.57e6 | 1.44e6 | 1.17e6 | 1.40e6 |
| stc (GeneID 34888) | DRSC03620 | 1.22e6 | 1.35e6 | 1.28e6 | 1.28e6 |
| TP53INP (GeneID 38543) | DRSC08178 | 1.26e6 | 1.42e6 | 1.04e6 | 1.14e6 |
| CG6055 (GeneID 34027) | DRSC02923 | 1.64e6 | 1.60e6 | 1.28e6 | 1.50e6 |
| unc-4 (GeneID 32757) | DRSC20381 | 1.46e6 | 1.41e6 | 9.36e5 | 1.11e6 |
| tor (GeneID 35717) | DRSC07707 | 1.68e6 | 1.68e6 | 1.31e6 | 1.52e6 |
| VhaPPA1-1 (GeneID 45247) | DRSC16170 | 1.38e6 | 1.45e6 | 1.23e6 | 1.27e6 |
| sofe (GeneID 32016) | DRSC19751 | 5.58e5 | – | 7.70e5 | – |
| Fmr1 (GeneID 37528) | DRSC16674 | 1.51e6 | 1.52e6 | 1.24e6 | 1.36e6 |
| CG12880 (GeneID 43328) | DRSC14568 | 5.11e5 | – | 8.19e5 | – |
| bt (GeneID 43814) | DRSC17129 | 4.93e5 | – | 8.42e5 | – |
| bt (GeneID 43814) | DRSC17171 | 4.43e5 | – | 7.27e5 | – |
| cu (GeneID 41339) | DRSC15643 | 1.69e6 | 1.57e6 | 1.36e6 | 1.51e6 |
| cu (GeneID 41339) | DRSC15648 | 1.75e6 | 1.80e6 | 1.42e6 | 1.49e6 |
| ds (GeneID 33245) | DRSC00815 | 1.47e6 | 1.54e6 | 1.05e6 | 1.17e6 |
| oxt (GeneID 38288) | DRSC08522 | 1.44e6 | 1.47e6 | 1.24e6 | 1.28e6 |
| Psa (GeneID 38175) | DRSC08152 | 1.41e6 | 1.50e6 | 1.09e6 | 1.01e6 |
| smal (GeneID 5740323) | DRSC02318 | 1.35e6 | 1.43e6 | 1.04e6 | 1.21e6 |
| smal (GeneID 5740323) | DRSC02319 | 1.64e6 | 1.52e6 | 1.13e6 | 1.32e6 |
| smal (GeneID 5740323) | DRSC02320 | 1.63e6 | 1.51e6 | 1.19e6 | 1.36e6 |
| smal (GeneID 5740323) | DRSC02504 | 1.56e6 | 1.47e6 | 1.06e6 | 1.26e6 |
| CG15536 (GeneID 43610) | DRSC15072 | 1.39e6 | 1.59e6 | 1.05e6 | 1.15e6 |
| CG5509 (GeneID 41539) | DRSC15822 | 1.58e6 | 1.73e6 | 1.45e6 | 1.60e6 |
| CoRest (GeneID 32941) | DRSC19881 | 1.57e6 | 1.63e6 | 1.01e6 | 1.18e6 |
| Adgf-A (GeneID 39976) | DRSC10566 | 1.45e6 | 1.45e6 | 1.19e6 | 1.29e6 |
| ppk18 (GeneID 34295) | DRSC02216 | 1.62e6 | 1.65e6 | 1.24e6 | 1.42e6 |
| unc-13 (GeneID 43841) | DRSC17192 | 1.19e6 | 1.63e6 | 1.02e6 | 1.08e6 |
| unc-13 (GeneID 43841) | DRSC17193 | 1.15e6 | 1.51e6 | 1.07e6 | 1.15e6 |
| unc-13 (GeneID 43841) | DRSC17223 | 5.07e5 | – | 7.82e5 | – |
| RpL35 (GeneID 31483) | DRSC18347 | 1.21e6 | 1.20e6 | 6.18e5 | 7.22e5 |
| par-6 (GeneID 32752) | DRSC20359 | 1.31e6 | 1.36e6 | 1.02e6 | 1.13e6 |
| mbt (GeneID 32631) | DRSC20348 | 1.59e6 | 1.57e6 | 9.80e5 | 1.02e6 |
| CG8939 (GeneID 32568) | DRSC20127 | 5.55e5 | – | 8.00e5 | – |
| CR41501 (GeneID 5740839) | DRSC07785 | 5.80e5 | – | 8.86e5 | – |
| CG6005 (GeneID 42279) | DRSC15945 | 1.45e6 | 1.59e6 | 1.14e6 | 1.18e6 |
| SC35 (GeneID 53444) | DRSC02502 | 1.40e6 | 1.42e6 | 9.61e5 | 1.10e6 |
| SC35 (GeneID 53444) | DRSC03425 | 1.46e6 | 1.56e6 | 1.26e6 | 1.35e6 |
| Cpr12A (GeneID 32309) | DRSC19722 | 1.64e6 | 1.51e6 | 1.12e6 | 1.26e6 |
| CG13367 (GeneID 31013) | DRSC18485 | 1.68e6 | 1.65e6 | 9.76e5 | 1.11e6 |
| CG13367 (GeneID 31013) | DRSC18486 | 1.74e6 | 1.82e6 | 9.76e5 | 1.20e6 |
| CG3107 (GeneID 35475) | DRSC04888 | 1.33e6 | 1.42e6 | 1.16e6 | 1.12e6 |
| MED20 (GeneID 43952) | DRSC03463 | 1.69e6 | 1.77e6 | 1.00e6 | 1.14e6 |
| Obp83ef (GeneID 40747) | DRSC12268 | 1.48e6 | 1.61e6 | 1.29e6 | 1.36e6 |
| Moca-cyp (GeneID 43374) | DRSC15364 | 5.69e5 | – | 8.92e5 | – |
| CG8320 + ATPCL | DRSC07147 | 1.54e6 | 1.59e6 | 1.15e6 | 1.24e6 |
| CG8891 (GeneID 33718) | DRSC03120 | 1.61e6 | 1.56e6 | 1.18e6 | 1.35e6 |
| prd1 (GeneID 41425) | DRSC15227 | 1.88e6 | 1.90e6 | 1.23e6 | 1.34e6 |
| CG9427 (GeneID 41164) | DRSC16490 | 1.74e6 | 1.84e6 | 1.28e6 | 1.39e6 |
| Def (GeneID 36047) | DRSC07398 | 1.57e6 | 1.68e6 | 1.22e6 | 1.34e6 |
| CG8468 (GeneID 36577) | DRSC07190 | 1.71e6 | 1.81e6 | 1.40e6 | 1.55e6 |
| CG3744 (GeneID 42972) | DRSC15511 | 1.57e6 | 1.54e6 | 9.45e5 | 1.01e6 |
| asl (GeneID 40682) | DRSC12319 | 1.65e6 | 1.77e6 | 1.27e6 | 1.36e6 |

Reformatted: results already given.
gene | DRSC id | Kc cell number, rep 1 | Kc cell number, rep 2 | S2R+ cell number, rep 1 | S2R+ cell number, rep 2
CG30015 (GeneID 36147) | DRSC07028 | 1.68e6 | 1.64e6 | 1.42e6 | 1.55e6
CG12164 (GeneID 35651) | DRSC06115 | 1.49e6 | 1.58e6 | 1.24e6 | 1.32e6
vig (GeneID 34885) | DRSC03630 | 1.35e6 | 1.45e6 | 9.81e5 | 1.17e6
vig (GeneID 34885) | DRSC03631 | 1.26e6 | 1.34e6 | 1.21e6 | 1.22e6
CG42662 + CG30080 | DRSC05571 | 1.81e6 | 1.82e6 | 1.17e6 | 1.32e6
AhcyL1 (GeneID 38342) | DRSC08647 | 1.57e6 | 1.44e6 | 1.17e6 | 1.40e6
stc (GeneID 34888) | DRSC03620 | 1.22e6 | 1.35e6 | 1.28e6 | 1.28e6
TP53INP (GeneID 38543) | DRSC08178 | 1.26e6 | 1.42e6 | 1.04e6 | 1.14e6
CG6055 (GeneID 34027) | DRSC02923 | 1.64e6 | 1.60e6 | 1.28e6 | 1.50e6
unc-4 (GeneID 32757) | DRSC20381 | 1.46e6 | 1.41e6 | 9.36e5 | 1.11e6
